In publication doi:10.1101/2024.06.25.600357:
Results are given in words; binding and its absence hold for the method and conditions named. Binding seen in cells or lysates may run through a third protein. A yes stands for co-enrichment or nearness to the bait. Other partners may have been found.

Protein sequences, listed by entry. Tags and fused reporters are not part of them.
UniProt Q9ULV4: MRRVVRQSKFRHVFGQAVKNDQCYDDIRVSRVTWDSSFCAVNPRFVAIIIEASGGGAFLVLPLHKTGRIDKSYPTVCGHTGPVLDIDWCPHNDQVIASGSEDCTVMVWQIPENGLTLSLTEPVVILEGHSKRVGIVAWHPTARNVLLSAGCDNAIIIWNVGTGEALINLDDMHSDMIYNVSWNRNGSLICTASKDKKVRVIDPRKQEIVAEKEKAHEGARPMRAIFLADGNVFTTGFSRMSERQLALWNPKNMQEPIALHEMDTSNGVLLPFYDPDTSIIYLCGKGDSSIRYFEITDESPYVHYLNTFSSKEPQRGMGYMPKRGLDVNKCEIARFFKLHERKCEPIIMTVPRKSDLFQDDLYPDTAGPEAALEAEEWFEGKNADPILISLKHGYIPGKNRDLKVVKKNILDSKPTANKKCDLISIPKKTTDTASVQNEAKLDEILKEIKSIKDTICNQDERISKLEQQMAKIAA
UniProt P35580: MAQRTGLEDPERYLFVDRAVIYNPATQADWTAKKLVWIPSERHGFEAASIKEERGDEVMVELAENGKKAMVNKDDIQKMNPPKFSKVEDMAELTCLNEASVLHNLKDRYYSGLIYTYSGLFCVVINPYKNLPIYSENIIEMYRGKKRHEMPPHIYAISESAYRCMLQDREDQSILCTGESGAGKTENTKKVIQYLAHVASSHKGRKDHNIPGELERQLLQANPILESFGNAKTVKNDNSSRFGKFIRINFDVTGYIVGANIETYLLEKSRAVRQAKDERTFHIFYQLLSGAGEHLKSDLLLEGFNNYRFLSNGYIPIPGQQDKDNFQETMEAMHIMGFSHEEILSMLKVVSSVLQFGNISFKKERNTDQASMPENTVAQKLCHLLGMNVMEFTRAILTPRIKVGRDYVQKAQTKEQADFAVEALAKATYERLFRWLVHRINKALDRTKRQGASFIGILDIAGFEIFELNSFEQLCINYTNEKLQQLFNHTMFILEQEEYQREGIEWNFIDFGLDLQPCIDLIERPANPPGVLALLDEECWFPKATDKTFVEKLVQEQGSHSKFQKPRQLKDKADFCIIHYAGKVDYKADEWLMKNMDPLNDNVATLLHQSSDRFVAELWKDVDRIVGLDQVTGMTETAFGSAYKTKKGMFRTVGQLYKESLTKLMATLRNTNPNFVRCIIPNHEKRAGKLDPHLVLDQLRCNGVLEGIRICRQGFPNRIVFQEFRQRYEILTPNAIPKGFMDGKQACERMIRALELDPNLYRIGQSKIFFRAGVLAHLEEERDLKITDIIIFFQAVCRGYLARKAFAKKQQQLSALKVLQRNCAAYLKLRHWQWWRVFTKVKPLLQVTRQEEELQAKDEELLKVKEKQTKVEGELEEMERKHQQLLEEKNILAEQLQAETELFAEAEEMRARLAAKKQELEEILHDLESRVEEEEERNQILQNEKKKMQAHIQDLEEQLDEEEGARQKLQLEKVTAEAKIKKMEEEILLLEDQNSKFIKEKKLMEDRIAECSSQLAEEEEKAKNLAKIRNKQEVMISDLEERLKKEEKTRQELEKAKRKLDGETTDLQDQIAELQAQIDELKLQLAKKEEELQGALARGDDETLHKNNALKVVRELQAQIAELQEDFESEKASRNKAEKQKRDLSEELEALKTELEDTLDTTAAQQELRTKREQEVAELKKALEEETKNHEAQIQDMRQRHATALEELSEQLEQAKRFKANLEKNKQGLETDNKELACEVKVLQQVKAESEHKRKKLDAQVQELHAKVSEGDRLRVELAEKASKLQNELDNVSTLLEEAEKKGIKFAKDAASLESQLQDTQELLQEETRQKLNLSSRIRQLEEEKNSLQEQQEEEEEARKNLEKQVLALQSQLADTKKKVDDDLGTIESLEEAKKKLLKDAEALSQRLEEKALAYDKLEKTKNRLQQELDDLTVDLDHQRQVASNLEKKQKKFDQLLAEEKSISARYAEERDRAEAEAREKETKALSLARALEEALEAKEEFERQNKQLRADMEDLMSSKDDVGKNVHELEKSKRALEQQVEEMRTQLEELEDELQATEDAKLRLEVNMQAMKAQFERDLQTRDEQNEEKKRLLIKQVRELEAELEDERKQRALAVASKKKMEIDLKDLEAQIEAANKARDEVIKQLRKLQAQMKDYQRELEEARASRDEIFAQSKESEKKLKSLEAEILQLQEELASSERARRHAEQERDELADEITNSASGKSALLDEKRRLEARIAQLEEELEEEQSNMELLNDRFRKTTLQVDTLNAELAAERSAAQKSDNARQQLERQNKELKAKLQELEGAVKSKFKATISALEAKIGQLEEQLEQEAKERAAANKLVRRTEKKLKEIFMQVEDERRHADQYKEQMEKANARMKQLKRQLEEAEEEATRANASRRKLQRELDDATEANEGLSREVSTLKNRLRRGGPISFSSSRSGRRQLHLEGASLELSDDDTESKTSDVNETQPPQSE

Target: T1, Vangl1 (human (endogenous in HUVEC)) (UniProt Q8TAA9)
T1 sequence: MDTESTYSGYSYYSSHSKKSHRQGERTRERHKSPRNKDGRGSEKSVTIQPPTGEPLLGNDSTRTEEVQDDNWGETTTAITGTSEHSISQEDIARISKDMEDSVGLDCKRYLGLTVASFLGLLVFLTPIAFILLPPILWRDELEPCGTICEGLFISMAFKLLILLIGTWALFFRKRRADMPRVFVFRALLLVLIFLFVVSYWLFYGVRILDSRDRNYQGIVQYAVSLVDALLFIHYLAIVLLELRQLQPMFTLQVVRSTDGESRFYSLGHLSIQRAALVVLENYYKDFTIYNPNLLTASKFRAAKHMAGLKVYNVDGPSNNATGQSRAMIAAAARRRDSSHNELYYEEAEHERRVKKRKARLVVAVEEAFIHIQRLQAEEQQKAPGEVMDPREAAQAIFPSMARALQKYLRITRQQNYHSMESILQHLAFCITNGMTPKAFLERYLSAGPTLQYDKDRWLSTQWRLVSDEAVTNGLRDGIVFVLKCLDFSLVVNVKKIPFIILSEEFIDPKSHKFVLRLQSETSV
Assay: affinity purification with mass spectrometry

| binding | Substance |
| --- | --- |
| binds | Coronin1C (CORO1C) (from UniProt Q9ULV4 1-474) |
| binds | Myosin10 (MYH10) (from UniProt P35580 1-1976) |
